6 substances from patent US20090202520A1 can be followed below.

Sequences of proteins named here, by UniProt entry; tags and fusion partners are left off. A change or cut given only in a name is not applied to a line headed by its entry. Residues count along the entry.
UniProt O75015, residues 17-200: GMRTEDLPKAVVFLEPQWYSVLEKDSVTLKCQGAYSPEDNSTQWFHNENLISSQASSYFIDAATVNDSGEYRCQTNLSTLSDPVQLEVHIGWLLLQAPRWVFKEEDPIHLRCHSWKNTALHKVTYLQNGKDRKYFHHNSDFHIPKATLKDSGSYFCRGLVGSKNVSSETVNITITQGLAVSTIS
UniProt P12314, residues 16-292: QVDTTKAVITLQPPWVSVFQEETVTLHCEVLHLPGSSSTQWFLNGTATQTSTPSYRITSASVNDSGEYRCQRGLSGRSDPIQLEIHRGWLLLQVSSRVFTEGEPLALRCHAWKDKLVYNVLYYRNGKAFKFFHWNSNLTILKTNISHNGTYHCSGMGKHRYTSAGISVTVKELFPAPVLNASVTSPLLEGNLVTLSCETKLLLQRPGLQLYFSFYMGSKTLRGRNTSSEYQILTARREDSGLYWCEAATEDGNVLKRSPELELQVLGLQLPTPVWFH
UniProt P02743: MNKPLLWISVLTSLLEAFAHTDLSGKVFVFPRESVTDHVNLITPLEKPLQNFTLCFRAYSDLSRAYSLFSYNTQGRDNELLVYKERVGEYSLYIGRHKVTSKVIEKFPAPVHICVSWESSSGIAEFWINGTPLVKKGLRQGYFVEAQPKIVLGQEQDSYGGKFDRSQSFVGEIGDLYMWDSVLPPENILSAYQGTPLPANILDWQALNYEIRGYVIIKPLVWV
UniProt P12318: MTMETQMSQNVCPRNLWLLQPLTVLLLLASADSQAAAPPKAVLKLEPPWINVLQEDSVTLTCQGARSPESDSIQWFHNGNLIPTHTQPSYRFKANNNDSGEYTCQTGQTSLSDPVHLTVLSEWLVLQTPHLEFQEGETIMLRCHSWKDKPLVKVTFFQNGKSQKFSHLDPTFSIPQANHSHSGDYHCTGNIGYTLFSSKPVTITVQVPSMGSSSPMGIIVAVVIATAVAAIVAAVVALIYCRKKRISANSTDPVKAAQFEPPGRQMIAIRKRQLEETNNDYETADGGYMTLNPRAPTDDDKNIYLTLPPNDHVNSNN

The target of assay [1] is soluble recombinant FcγRIIIB (sFcγRIIIB) (UniProt O75015). The assay is described as follows: SPR sensorgram, five receptor concentrations.
Assay [2] has the same target. The assay is described as follows: SPR (Biacore X100), SAP on CM5 chip. For orientation: SPR reads the build-up and loss of mass on a sensor chip optically.
The target in assay [3] is soluble recombinant FcγRI (sFcγRI) (UniProt P12314). The assay is described as follows: SPR (Biacore X100), SAP on CM5 chip.
Assay [4] shares this target. The assay is described as follows: SPR, comparison of SAP and CRP affinities.
Assay [5] concerns the target T1, C-reactive protein (CRP) (human) (UniProt P02741).
T1 sequence (looked up): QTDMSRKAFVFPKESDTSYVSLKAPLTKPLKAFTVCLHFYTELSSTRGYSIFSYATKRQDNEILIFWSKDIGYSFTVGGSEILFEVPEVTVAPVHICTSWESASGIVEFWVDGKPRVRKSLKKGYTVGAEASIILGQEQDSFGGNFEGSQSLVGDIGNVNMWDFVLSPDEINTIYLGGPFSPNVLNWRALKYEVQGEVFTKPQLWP
The assay is described as follows: SPR, rank order of affinities.

The target in assay [6] is T1, C-reactive protein (CRP) (human). The assay is described as follows: SPR (Biacore X100), multi-cycle kinetics; CRP captured via PC-KLH on CM5 chip and briefly immobilized, sFcγRIIIB flowed for 90 sec.
Assay [7] has the same target. The assay is described as follows: SPR (Biacore X100), CRP captured on PC-KLH on CM5 chip.
Assay [8] has the same target. The assay is described as follows: SPR steady-state plot of Req against FcγRIIIB concentration; CRP captured via PC-KLH on CM5 chip.
Assay [9] has the same target. The assay is described as follows: SPR (Biacore X100), multi-cycle kinetics; CRP captured via PC-KLH on CM5 chip and briefly immobilized, sFcγRI flowed for 120 sec.
For assay [10] the target is unchanged. The assay is described as follows: SPR steady-state plot of Req against FcγRI concentration; CRP captured via PC-KLH on CM5 chip.
Assay [11] concerns the target serum amyloid P (SAP) (human) (UniProt P02743). The assay is described as follows: SPR, rank order of affinities.

No constants are given. Whether binding was seen depends on the method and setting. Some results given as binding are weak or reduced against the parent protein; the word gives no strength.

On to “serum amyloid P (SAP) (from UniProt P02743 20-223) (ligand; other documents disagree on this pair)”, for which the binding result in assay [1] and in assay [2] was “binds” each time.
For “serum amyloid P (SAP) (from UniProt P02743 20-223) (ligand)”, the binding result in assay [3] and in [4] was “binds” throughout.
As for “soluble recombinant FcγRIIIB (sFcγRIIIB) (from UniProt O75015 17-200) (receptor)”, the binding entry in [5], in assay [6], in assay [7] and in assay [8] was “binds” in each case.
On to “soluble recombinant FcγRI (sFcγRI) (from UniProt P12314 16-292) (receptor)”, for which the binding result in [9], in assay [10], in assay [11], in assay [5] and in assay [7] was “binds” each time.
As to “soluble recombinant FcγRIIA (H131 variant) (from UniProt P12318 36-217) (receptor)”, the binding entry in assay [5] and in [7] was “binds” each time.
“soluble recombinant FcγRIIA (R131 variant) (from UniProt P12318 36-217) (receptor)”: the binding result in assay [5] and in [7] was “binds” each time.
